Source: article PMC9585078
No constants are given. Whether binding was seen depends on the method and setting. In cells and extracts the contact can be indirect. Some entries that bind do so weakly or less than the wild type. Sequences can lack the tags named with a protein.

Amino acid sequences for entries named in this document (tags omitted). Residues count along the entry.
UniProt P40189, residues 23-918: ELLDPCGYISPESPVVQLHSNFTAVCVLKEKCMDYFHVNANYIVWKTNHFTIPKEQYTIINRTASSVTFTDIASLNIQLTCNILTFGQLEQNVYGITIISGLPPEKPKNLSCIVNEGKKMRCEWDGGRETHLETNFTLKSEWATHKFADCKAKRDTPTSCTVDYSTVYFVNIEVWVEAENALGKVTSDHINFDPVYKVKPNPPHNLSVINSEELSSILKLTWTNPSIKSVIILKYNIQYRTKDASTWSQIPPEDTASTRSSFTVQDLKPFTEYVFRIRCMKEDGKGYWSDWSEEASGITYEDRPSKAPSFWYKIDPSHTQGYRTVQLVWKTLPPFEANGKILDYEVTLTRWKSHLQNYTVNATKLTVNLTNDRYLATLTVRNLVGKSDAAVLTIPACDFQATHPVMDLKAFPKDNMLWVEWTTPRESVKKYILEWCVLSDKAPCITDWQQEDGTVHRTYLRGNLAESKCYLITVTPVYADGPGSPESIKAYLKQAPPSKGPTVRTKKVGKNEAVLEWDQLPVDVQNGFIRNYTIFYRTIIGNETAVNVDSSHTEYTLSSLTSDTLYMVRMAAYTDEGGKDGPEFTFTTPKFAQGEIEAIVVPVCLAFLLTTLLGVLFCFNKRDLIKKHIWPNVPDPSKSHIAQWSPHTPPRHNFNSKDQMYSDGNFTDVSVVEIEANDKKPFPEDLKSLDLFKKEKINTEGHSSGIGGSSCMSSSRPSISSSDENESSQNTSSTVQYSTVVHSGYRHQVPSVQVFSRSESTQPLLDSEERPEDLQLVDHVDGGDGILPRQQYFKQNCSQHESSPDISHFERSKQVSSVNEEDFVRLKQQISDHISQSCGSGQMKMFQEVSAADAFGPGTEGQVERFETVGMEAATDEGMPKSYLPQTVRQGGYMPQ

Target: His-tagged GP130 (human (cDNA library of HEK293 cells)) (UniProt P40189)
Assay: co-IP; HEK 293 cells transfected for 48 h with FLAG-tagged PROM1 (full length, deletion mutants or PROM1^GPI-EX1) and GP130-His; reciprocal immunoprecipitation for the full-length pair; NP-40 lysates (25 mM HEPES, 150 mM NaCl, 1% NP-40), 4 °C; also after MβCD cholesterol depletion (interaction not changed)

B1: FLAG-tagged human PROM1 transcript variant 2, full length (1-856) (protein, UniProt O43490-2 20-856)
chain: GGQPSSTDAPKAWNYELPATNYETQDSHKAGPIGILFELVHIFLYVVQPRDFPEDTLRKFLQKAYESKIDYDKIVYYEAGIILCCVLGLLFIILMPLVGYFFCMCRCCNKCGGEMHQRQKENGPFLRKCFAISLLVICIIISIGIFYGFVANHQVRTRIKRSRKLADSNFKDLRTLLNETPEQIKYILAQYNTTKDKAFTDLNSINSVLGGGILDRLRPNIIPVLDEIKSMATAIKETKEALENMNSTLKSLHQQSTQLSSSLTSVKTSLRSSLNDPLCLVHPSSETCNSIRLSLSQLNSNPELRQLPPVDAELDNVNNVLRTDLDGLVQQGYQSLNDIPDRVQRQTTTVVAGIKRVLNSIGSDIDNVTQRLPIQDILSAFSVYVNNTESYIHRNLPTLEEYDSYWWLGGLVICSLLTLIVIFYYLGLLCGVCGYDRHATPTTRGCVSNTGGVFLMVGVGLSFLFCWILMIIVVLTFVFGANVEKLICEPYTSKELFRVLDTPYLLNEDWEYYLSGKLFNKSKMKLTFEQVYSDCKKNRGTYGTLHLQNSFNISEHLNINEHTGSISSELESLKVNLNIFLLGAAGRKNLQDFAACGIDRMNYDSYLAQTGKSPAGVNLLSFAYDLEAKANSLPPGNLRNSLKRDAQTIKTIHQQRVLPIEQSLSTLYQSVKILQRTGNGLLERVTRILASLDFAQNFITNNTSSVIIEETKKYGRTIIGYFEHYLQWIEFSISEKVASCKPVATALDTAVDVFLCSYIIDPLNLFWFGIGKATVFLLPALIFAVKLAKYYRRMDSEDVYDDVETIPMKNMENGNNGYHKDHVYGIHNPVMTSPSQH
  binding: binds
